This passage reports binding results from doi:10.1101/2021.08.20.457143.

Protein sequences, listed by entry. Tags and fused reporters are not part of them. Residues count along the entry.
UniProt Q0PF16: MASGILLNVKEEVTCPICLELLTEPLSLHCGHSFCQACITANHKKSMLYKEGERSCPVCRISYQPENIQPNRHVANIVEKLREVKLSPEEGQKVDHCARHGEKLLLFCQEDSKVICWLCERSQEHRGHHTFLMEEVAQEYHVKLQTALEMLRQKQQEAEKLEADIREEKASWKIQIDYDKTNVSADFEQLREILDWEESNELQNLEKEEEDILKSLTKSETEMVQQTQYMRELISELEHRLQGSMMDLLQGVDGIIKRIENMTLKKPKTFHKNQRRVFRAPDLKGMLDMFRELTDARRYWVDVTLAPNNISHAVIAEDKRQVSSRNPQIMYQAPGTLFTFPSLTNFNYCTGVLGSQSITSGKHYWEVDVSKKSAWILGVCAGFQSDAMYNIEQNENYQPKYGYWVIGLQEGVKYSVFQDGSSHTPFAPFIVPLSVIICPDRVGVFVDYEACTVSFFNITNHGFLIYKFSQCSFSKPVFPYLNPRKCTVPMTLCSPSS
UniProt P27824, residues 21-592: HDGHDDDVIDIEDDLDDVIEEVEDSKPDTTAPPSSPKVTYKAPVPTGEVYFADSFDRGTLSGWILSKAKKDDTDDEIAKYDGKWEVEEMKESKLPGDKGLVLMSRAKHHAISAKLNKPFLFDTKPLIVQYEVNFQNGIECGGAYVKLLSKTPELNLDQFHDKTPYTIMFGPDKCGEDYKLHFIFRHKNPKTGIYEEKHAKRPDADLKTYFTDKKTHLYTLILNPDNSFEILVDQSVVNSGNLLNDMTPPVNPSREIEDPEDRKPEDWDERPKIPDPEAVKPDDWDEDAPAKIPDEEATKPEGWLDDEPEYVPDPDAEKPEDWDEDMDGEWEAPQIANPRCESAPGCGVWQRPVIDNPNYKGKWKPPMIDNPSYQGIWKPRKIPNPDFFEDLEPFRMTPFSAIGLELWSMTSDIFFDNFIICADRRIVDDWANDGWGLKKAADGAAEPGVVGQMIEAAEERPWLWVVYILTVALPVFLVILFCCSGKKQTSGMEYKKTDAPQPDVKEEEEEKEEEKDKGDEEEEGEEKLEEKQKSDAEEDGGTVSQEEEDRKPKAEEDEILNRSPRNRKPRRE
UniProt Q9UHD2: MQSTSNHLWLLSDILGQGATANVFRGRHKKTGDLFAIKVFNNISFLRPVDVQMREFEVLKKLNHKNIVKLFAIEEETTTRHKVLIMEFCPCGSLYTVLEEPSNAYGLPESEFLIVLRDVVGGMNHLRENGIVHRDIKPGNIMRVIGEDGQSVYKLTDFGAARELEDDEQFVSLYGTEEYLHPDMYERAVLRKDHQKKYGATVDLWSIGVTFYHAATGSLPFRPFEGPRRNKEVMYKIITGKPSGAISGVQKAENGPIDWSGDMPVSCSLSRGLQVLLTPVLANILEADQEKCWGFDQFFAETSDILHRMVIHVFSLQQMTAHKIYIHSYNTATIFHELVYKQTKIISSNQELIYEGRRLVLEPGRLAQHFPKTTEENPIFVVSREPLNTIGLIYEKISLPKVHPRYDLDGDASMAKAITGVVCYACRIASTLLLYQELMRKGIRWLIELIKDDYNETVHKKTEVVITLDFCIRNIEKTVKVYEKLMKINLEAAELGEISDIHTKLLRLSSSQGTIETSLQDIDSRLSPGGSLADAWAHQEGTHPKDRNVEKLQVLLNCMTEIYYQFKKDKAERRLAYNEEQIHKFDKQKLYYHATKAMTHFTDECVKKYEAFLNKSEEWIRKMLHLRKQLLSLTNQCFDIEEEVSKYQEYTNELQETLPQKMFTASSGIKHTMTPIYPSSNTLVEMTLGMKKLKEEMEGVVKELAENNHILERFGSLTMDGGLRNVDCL

B1: TGF-beta activated kinase binding protein 1 (protein, UniProt Q15750 1-504)
chain: MAAQRRSLLQSEQQPSWTDDLPLCHLSGVGSASNRSYSADGKGTESHPPEDSWLKFRSENNCFLYGVFNGYDGNRVTNFVAQRLSAELLLGQLNAEHAEADVRRVLLQAFDVVERSFLESIDDALAEKASLQSQLPEGVPQHQLPPQYQKILERLKTLEREISGGAMAVVAVLLNNKLYVANVGTNRALLCKSTVDGLQVTQLNVDHTTENEDELFRLSQLGLDAGKIKQVGIICGQESTRRIGDYKVKYGYTDIDLLSAAKSKPIIAEPEIHGAQPLDGVTGFLVLMSEGLYKALEAAHGPGQANQEIAAMIDTEFAKQTSLDAVAQAVVDRVKRIHSDTFASGGERARFCPRHEDMTLLVRNFGYPLGEMSQPTPSPAPAAGGRVYPVSVPYSSAQSTSKTSVTLSLVMPSQGQMVNGAHSASTLDEATPTLTNQSPTLTLQSTNTHTQSSSSSSDGGLFRSRPAHSLPPGEDGRVEPYVDFAEFYRLWSVDHGEQSVVTAP
B2: NIPSNAP1 (protein, UniProt Q9BPW8 36-284)
chain: SKDNEGSWFRSLFVHKVDPRKDAHSTLLSKKETSNLYKIQFHNVKPEYLDAYNSLTEAVLPKLHLDEDYPCSLVGNWNTWYGEQDQAVHLWRFSGGYPALMDCMNKLKNNKEYLEFRRERSQMLLSRRNQLLLEFSFWNEPQPRMGPNIYELRTYKLKPGTMIEWGNNWARAIKYRQENQEAVGGFFSQIGELYVVHHLWAYKDLQSREETRNAAWRKRGWDENVYYTVPLVRHMESRIMIPLKISPLQ
B3: FAF2/UBXN3B (protein, UniProt Q96CS3 1-445)
chain: MAAPEERDLTQEQTEKLLQFQDLTGIESMDQCRHTLEQHNWNIEAAVQDRLNEQEGVPSVFNPPPSRPLQVNTADHRIYSYVVSRPQPRGLLGWGYYLIMLPFRFTYYTILDIFRFALRFIRPDPRSRVTDPVGDIVSFMHSFEEKYGRAHPVFYQGTYSQALNDAKRELRFLLVYLHGDDHQDSDEFCRNTLCAPEVISLINTRMLFWACSTNKPEGYRVSQALRENTYPFLAMIMLKDRRMTVVGRLEGLIQPDDLINQLTFIMDANQTYLVSERLEREERNQTQVLRQQQDEAYLASLRADQEKERKKREERERKRRKEEEVQQQKLAEERRRQNLQEEKERKLECLPPEPSPDDPESVKIIFKLPNDSRVERRFHFSQSLTVIHDFLFSLKESPEKFQIEANFPRRVLPCIPSEEWPNPPTLQEAGLSHTEVLFVQDLTDE
B4: SAMM50 (protein, UniProt Q9Y512 1-469)
chain: MGTVHARSLEPLPSSGPDFGGLGEEAEFVEVEPEAKQEILENKDVVVQHVHFDGLGRTKDDIIICEIGDVFKAKNLIEVMRKSHEAREKLLRLGIFRQVDVLIDTCQGDDALPNGLDVTFEVTELRRLTGSYNTMVGNNEGSMVLGLKLPNLLGRAEKVTFQFSYGTKETSYGLSFFKPRPGNFERNFSVNLYKVTGQFPWSSLRETDRGMSAEYSFPIWKTSHTVKWEGVWRELGCLSRTASFAVRKESGHSLKSSLSHAMVIDSRNSSILPRRGALLKVNQELAGYTGGDVSFIKEDFELQLNKQLIFDSVFSASFWGGMLVPIGDKPSSIADRFYLGGPTSIRGFSMHSIGPQSEGDYLGGEAYWAGGLHLYTPLPFRPGQGGFGELFRTHFFLNAGNLCNLNYGEGPKAHIRKLAECIRWSYGAGIVLRLGNIARLELNYCVPMGVQTGDRICDGVQFGAGIRFL
B5: NIPSNAP2 (protein, UniProt O75323 24-286)
chain: CSLLPRLRTWTSSSNRSREDSWLKSLFVRKVDPRKDAHSNLLAKKETSNLYKLQFHNVKPECLEAYNKICQEVLPKIHEDKHYPCTLVGTWNTWYGEQDQAVHLWRYEGGYPALTEVMNKLRENKEFLEFRKARSDMLLSRKNQLLLEFSFWNEPVPRSGPNIYELRSYQLRPGTMIEWGNYWARAIRFRQDGNEAVGGFFSQIGQLYMVHHLWAYRDLQTREDIRNAAWHKHGWEELVYYTVPLIQEMESRIMIPLKTSPLQ

No constants are given. Whether binding was seen depends on the method and setting. In cells and extracts the contact can be indirect. A yes stands for co-enrichment or nearness to the bait. Other partners may have been found.

For the first test, the target named is rhesus (Rh) TRIM5-APEX2-V5 (rhesus macaque) (UniProt Q0PF16). The experiment in a line: proximity labelling.
B1: the binding result is “binds”.

As for B2, the binding result is “binds”.

Consider B3, for which the binding result was “binds”.

With B4, the binding result is “binds”.

B5: the binding entry is “binds”.

The target is the same in a further test. The experiment in a line: proximity labelling. The source holds these as a separate data set.
In the case of Calnexin (from UniProt P27824 21-592), the binding entry was “binds”.

Consider “TBK1 (from UniProt Q9UHD2 1-729) (enzyme)”, for which the binding entry is “binds”.
